Source: PubChem BioAssay AID1487 (National Center for Advancing Translational Sciences (NCATS), 2009)
The list shows a part of the results. Further columns of the screen follow, without active or inactive calls. The list favours compounds with an active or inconclusive main result. Potencies come from curve fits of mixed quality, noted in brackets.

Assay: qHTS Assay for Modulators of Lamin A Splicing
Settings: HeLa LMNA splicing GFP/RFP minigene ratio, 48 h
Outline: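 S3 HeLa cells stably expressing lamin A-EGFP splicing minigene plus DsRed2, 600 cells/well, 48 h compound exposure at 37C. Laser-scanning cytometry; analysed as GFP (500-530 nm)/RFP (575-640 nm) total intensity ratio; 0.5% DMSO vehicle.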

[1] = measured here: GFP splicing reporter channel
[2] = measured here: RFP viability control channel

Row | Compound | AC50 [1] | AC50 [2]
1 | CCOc1ccc2nc(SC3CC(=O)N(c4ccccc4)C3=O)sc2c1 (centres undefined) | 17.8 µM [falling, single point] | 35.5 µM [falling, single point]
2 | CCC(O)CNC(=O)NC(=C(Cl)Cl)c1ccc(C)c(F)c1 (centres undefined) |  | 22.4 µM [rising, partial curve]
3 | COc1cccc(CN2CCc3nc(Nc4ccc5c(c4)OCCO5)ncc3C2)c1 | 35.5 µM [falling, single point] | 
4 | Cc1ccc(O)c(N=Cc2ccc(C)s2)c1 |  | 0.00447 µM [rising, full curve, poor fit]
5 | Cn1/c(=N/NC(=O)c2cccc(OC(F)F)c2)sc2ccccc21 | 35.5 µM [rising, single point] | 25.1 µM [rising, single point]
6 | CC(C)(C)n1ncc2c(=O)n(CC(=O)NCc3ccco3)cnc21 | 14.1 µM [falling, partial curve, poor fit] | 
7 | COc1ccc(C(=O)/C=C/c2ccccc2)c(O)c1 | 1.12 µM [falling, full curve] | 35.5 µM [falling, partial curve]
8 | O=C(COc1ncnc2sccc12)N1CCN(C(=O)c2ccco2)CC1 | 0.0141 µM [falling, full curve, poor fit] | 0.0141 µM [falling, full curve, poor fit]
9 | Cc1ccc2nc(N(Cc3cccnc3)C(=O)Cc3ccccc3)sc2c1 |  | 3.16 µM [falling, partial curve]
10 | COc1cc(/C=C(/C#N)C(=O)Nc2ccc(C)cc2)ccc1Oc1nc(Cl)ncc1F | 2 µM [rising, full curve] | 
11 | CC(C)COc1ccc(CN=C(N)N=C(N)N)cc1Cl |  | 22.4 µM [rising, single point]
12 | Cc1c2c(n3c(nc4ccccc43)c1C#N)N(CCCN(C)C)CC2 | 3.98 µM [falling, full curve, poor fit] | 
13 | C=CC1=C(C(=O)O)N2C(=O)[C@@H](NC(=O)/C(=N\OCC(=O)O)c3csc(N)n3)[C@@H]2SC1 | 0.112 µM [falling, full curve, poor fit] | 0.1 µM [falling, full curve, poor fit]
14 | Cc1cccc(COCC(Cc2ccccc2)N2CCN(C(=O)c3ccc(C(F)(F)F)cc3)CCC2=O)c1 (centres undefined) | 10 µM [rising, partial curve, poor fit] | 15.8 µM [rising, partial curve]
15 | CCCCn1c(=O)n(C)c(=O)c2c3c(sc21)COC(C)(C)C3 |  | 14.1 µM [rising, partial curve]
16 | O=C(/C=C/c1ccc(Cl)cc1Cl)Nc1cccc(S(=O)(=O)NC2=NCCC2)c1 | 12.6 µM [falling, partial curve, poor fit] | 
17 | Cn1cc(-c2nc3cnc(N4CCNCC4)nc3n(CCc3ccccc3)c2=O)c2ccccc21 | 12.6 µM [falling, partial curve] | 12.6 µM [falling, partial curve]
18 | CCOC(=O)C1CCCN(C(=S)Nc2cccc(Cl)c2)C1 (centres undefined) |  | 35.5 µM [rising, single point]
19 | O=C(COC(=O)c1ccccc1C(=O)c1ccccc1)Nc1ccc(SC(F)F)cc1 |  | 14.1 µM [rising, single point]

Row | Compound | AC50 [1] | AC50 [2]
20 | Cc1ccc(O)c(C(=O)c2cnc3c(c2)CN(CCC(C)C)C(=O)N3)c1 | 11.2 µM [rising, partial curve] | 12.6 µM [rising, partial curve, poor fit]
21 | Cc1noc(C)c1-c1nc(Nc2ccncc2)c2ccccc2n1 | 3.16 µM [falling, partial curve, poor fit] | 
22 | Cc1nc2cc3ccccc3cc2n1C |  | 20 µM [falling, partial curve, poor fit]
23 | O=C(Nc1nnc(C2COc3ccccc3O2)o1)c1ccc(F)cc1 (centres undefined) |  | 4.47 µM [rising, partial curve]
24 | CN(C)S(=O)(=O)c1cccc(NC(=S)N/N=C/C(=O)c2ccccc2)c1 |  | 22.4 µM [rising, single point]
25 | O=C(N/N=C/c1c[nH]c2ccccc12)c1cccc([N+](=O)[O-])c1 |  | 12.6 µM [rising, partial curve, poor fit]
26 | CCCc1[nH]nc2c1C(c1ccsc1)C(C#N)=C(N)O2 (centres undefined) |  | 35.5 µM [falling, single point]
27 | COc1cccc(OC)c1C(=O)NC(=S)Nc1ccc2oc(=O)ccc2c1 |  | 11.2 µM [rising, partial curve, poor fit]
28 | CCC(=O)Nc1ccc(Nc2nc(C)c([N+](=O)[O-])c(Nc3ccc(NC(=O)CC)cc3)n2)cc1 |  | 25.1 µM [rising, single point]
29 | Cc1ccc(COc2cccc3c2CCN(Cc2ccc(F)cc2)C3=O)cc1 |  | 25.1 µM [rising, single point]
30 | CN(CC(=O)Nc1ccc(C(N)=O)cc1)CC(=O)Nc1ccccc1Cl | 0.01 µM [rising, full curve, poor fit] | 0.0794 µM [rising, partial curve]
31 | COc1ccccc1CNc1ncnc2ccc(-c3ccoc3)cc12 | 10 µM [falling, partial curve] | 12.6 µM [falling, partial curve]
32 | CCCCCCC/C=C\CCCCCCCCC(=O)O | 5.62 µM [falling, partial curve, poor fit] | 6.31 µM [falling, single point]
33 | Cc1ccc(C(=O)NNC(=S)NC(=O)c2ccc(Cl)cc2Cl)cc1 |  | 17.8 µM [rising, single point]
34 | COc1cccc(C(=O)N(Cc2cccnc2)c2nc3c(OC)ccc(C)c3s2)c1OC |  | 3.98 µM [rising, full curve, poor fit]
35 | COc1ccccc1OCCSc1nc2ccc([N+](=O)[O-])cc2s1 |  | 17.8 µM [rising, partial curve]
36 | CC(=O)NC(=S)Nc1ccccc1C(=O)NC1CCCCC1 |  | 12.6 µM [rising, partial curve]
37 | COc1ccc(NC(=O)c2ccc(COc3ccccc3Br)o2)cc1OC |  | 11.2 µM [rising, partial curve]
38 | COc1ccccc1NS(=O)(=O)c1cc(C(=O)NCCC(C)C)ccc1F | 0.00501 µM [falling, full curve, poor fit] | 

Arranged by length of the SMILES (low to high): some entries from above.
Row | Compound | AC50 [1] | AC50 [2]
32 | CCCCCCC/C=C\CCCCCCCCC(=O)O | 5.62 µM [falling, partial curve, poor fit] | 6.31 µM [falling, single point]
36 | CC(=O)NC(=S)Nc1ccccc1C(=O)NC1CCCCC1 |  | 12.6 µM [rising, partial curve]
8 | O=C(COc1ncnc2sccc12)N1CCN(C(=O)c2ccco2)CC1 | 0.0141 µM [falling, full curve, poor fit] | 0.0141 µM [falling, full curve, poor fit]

(cont.)

Row | Compound | AC50 [1] | AC50 [2]
39 | Cn1nc(C(=O)NCc2cccc(Cl)c2)c2c1-c1ccccc1S(=O)(=O)C2 | 5.01 µM [falling, partial curve, poor fit] | 
40 | CCCCNC(=O)c1ccc(CS(=O)(=O)c2cccc(C(F)(F)F)c2)o1 |  | 35.5 µM [rising, single point]
41 | Cc1c(C(=O)NCc2ccccn2)sc2nc(-c3ccc(F)cc3)cn12 | 17.8 µM [rising, single point] | 
42 | CCOC(=O)Cn1c(=O)n(C2CCCCC2)c2nc(-c3ccc(CC)cc3)nc(C(N)=O)c21 | 4.47 µM [rising, full curve] | 4.47 µM [rising, full curve, poor fit]
43 | N#CC(C(=O)OCc1ccccc1)c1nc2ccccc2nc1N1CCOCC1 (centres undefined) | 15.8 µM [rising, single point] | 3.98 µM [rising, single point]
44 | CC(=O)Nc1nc(COc2ccc3ccccc3c2)cs1 |  | 8.91 µM [rising, partial curve]
45 | Cc1ccccc1N(C)S(=O)(=O)c1nnc(NC(=O)c2ccccc2F)s1 |  | 8.91 µM [rising, partial curve, poor fit]
46 | Cc1ccc(S(=O)(=O)NCCc2csc(-c3ccc(Cl)cc3)n2)cc1 | 35.5 µM [falling, single point] | 35.5 µM [falling, partial curve]
47 | Cc1ccc(NC(=O)C(=O)NCCc2sc(-c3ccc(Cl)cc3)nc2C)cc1C | 8.91 µM [falling, partial curve] | 14.1 µM [falling, partial curve, poor fit]
48 | O=C(Nc1ccncc1)c1cccs1 | 31.6 µM [rising, single point] | 
49 | COc1ccc(F)cc1S(=O)(=O)NCC(c1ccco1)S(=O)(=O)c1ccc(F)cc1 (centres undefined) |  | 6.31 µM [rising, partial curve]
50 | Cc1ccc(-c2cc(C(=O)Nc3nccs3)c3ccccc3n2)o1 |  | 28.2 µM [rising, single point]
51 | CCN(CC(=O)Nc1ccccc1OC)C(=O)Cn1cnc2ccccc2c1=O |  | 0.02 µM [falling, full curve, poor fit]
52 | O=Nc1c2nc3ccccc3n(O)c-2c2ccccc12 |  | 11.2 µM [rising, partial curve]
53 | O=C(Nc1ccc(-n2nncc2-c2ccccc2)cc1)c1cccc(F)c1 | 2.51 µM [falling, full curve, poor fit] | 0.316 µM [falling, full curve]
54 | Cc1c(-c2ccccc2)oc2c(C(=O)OCCN3CCCCC3)cccc2c1=O | 1.12 µM [rising, single point] | 1.26 µM [rising, single point]
55 | COCCn1c(C)cc(C(=O)CSc2cc(C)c3ccc(OC)cc3n2)c1C |  | 35.5 µM [rising, single point]
56 | O=C(O)CSCC(=O)N1CCN(S(=O)(=O)c2ccccc2)CC1 | 0.0178 µM [falling, full curve, poor fit] | 0.00631 µM [falling, full curve, poor fit]
